Results taken from PubChem BioAssay AID248 (DTP/NCI, 2004).
The list shows only some results of the screen, not a fair sample: it gathers tests that were run many times, whatever their T/C, doses with no T/C, and many T/C values between a quarter and a half above the control. Further doses and runs are listed elsewhere. T/C gives the treated animals as a percentage of the vehicle group. Some doses have a count of surviving animals in place of a T/C: the source holds a T/C of zero for them, seemingly a mark for toxic or unscored doses. Some survivor counts are full or nearly so, which does not show that the dose was tolerated: survival well below the control is almost never listed, so the zero probably covers shortened survival too. Counts of survivors are from the toxicity check (mostly the fifth day) where no day follows; animals may have died later. Schedules are NCI's codes, read here as Q, the interval in days (D) or hours (H), X, the number of doses. Some schedules carry Z or #; the key to these is not given. Some doses were run more than once; their values stand side by side, smallest first. For survival time, this PubChem deposit counts one and a half times the control or more as active, and values a quarter to a half above the control carry no call in these data; other NCI protocols may use other cut-offs. Some T/C values are followed by the survivors on the day toxicity was checked, most often the fifth; without a count, all were alive then.

Test system: L1210 leukemia ip in BDF1 mice, survival T/C
Test: NCI In Vivo Anticancer Drug Screen. Data for tumor model L1210 Leukemia (intraperitoneal) in B6D2F1 (BDF1) mice
Conditions: T/C endpoint: mean survival time, higher T/C = longer survival
[1] = dose: 400.0 mg/kg/injection, schedule: Q04DX002 (ip), vehicle: saline
[2] = dose: 300.0 mg/kg/injection, schedule: Q01DX001 (ip), vehicle: carboxymethylcellulose (CMC)
[3] = dose: 300.0 mg/kg/injection, schedule: Q01DX001 (ip), vehicle: saline
[4] = dose: 200.0 mg/kg/injection, schedule: Q04DX003 (ip), vehicle: saline with Tween-80
[5] = dose: 400.0 mg/kg/injection, schedule: Q04DX003 (ip), vehicle: saline with Tween-80
[6] = dose: 200.0 mg/kg/injection, schedule: Q01DX009 (ip), vehicle: Klucel (hydroxypropylcellulose) (HPC)
[7] = dose: 400.0 mg/kg/injection, schedule: Q01DX009 (ip), vehicle: Klucel (hydroxypropylcellulose) (HPC)
[8] = dose: 400.0 mg/kg/injection, schedule: Q01DX001 (ip), vehicle: other
[9] = dose: 400.0 mg/kg/injection, schedule: Q01DX001 (ip), vehicle: saline
[10] = dose: 400.0 mg/kg/injection, schedule: Q04DX002 (ip), vehicle: saline with Tween-80
[11] = dose: 100.0 mg/kg/injection, schedule: Q01DX009 (ip), vehicle: Klucel (hydroxypropylcellulose) (HPC)
[12] = dose: 200.0 mg/kg/injection, schedule: Q04DX003 (ip), vehicle: Klucel (hydroxypropylcellulose) (HPC)

Structure (SMILES): COCCCN=C(N)c1ccc(NC(=O)c2ccc(C(=O)Nc3ccc(C(N)=NCCCOC)cc3)c(Cl)c2)cc1
- T/C (dose: 1.88 mg/kg/injection, schedule: Q01DX Z (ip), vehicle: saline): 129 % of control
- T/C (dose: 3.75 mg/kg/injection, schedule: Q01DX Z (ip), vehicle: saline): 143 % of control [5 of 6 alive]
- survivor count (dose: 30.0 mg/kg/injection, schedule: Q01DX Z (ip), vehicle: saline): 1 of 6
- survivor count (dose: 60.0 mg/kg/injection, schedule: Q01DX Z (ip), vehicle: saline): 0 of 6
- survivor count (dose: 120.0 mg/kg/injection, schedule: Q01DX Z (ip), vehicle: saline): 0 of 6

Structure (SMILES): Cc1ccc(S(=O)(=O)[O][Pb]([CH3])([CH3])[CH3])cc1
- survivor count (dose: 12.5 mg/kg/injection, schedule: Q01DX009 (ip), vehicle: saline): 5 of 6
- survivor count (dose: 100.0 mg/kg/injection, schedule: Q04DX002 (ip), vehicle: saline): 0 of 3
- survivor count (dose: 200.0 mg/kg/injection, schedule: Q04DX002 (ip), vehicle: saline): 0 of 3
- survivor count [1]: 0 of 3

Structure (SMILES): COc1ccc([P+](Cc2ccccc2)(c2ccccc2)c2ccc3ccccc3c2)cc1 (stereo not drawn)
- survivor count [2]: 0 of 6

Structure (SMILES): O=C(Nc1cc(Cl)ccc1Oc1cc(Cl)c(Cl)cc1S(=O)(=O)O)Nc1cc(Cl)ccc1Oc1cc(Cl)c(Cl)cc1S(=O)(=O)O
- survivor count [3]: 3 of 6

Structure (SMILES): CCSC(SCC)C(OC(C)=O)C(OC(C)=O)C(OC(C)=O)C(CNC(C)=O)OC(C)=O (stereo not drawn)
- survivor count [4]: 6 of 6
- survivor count [5]: 6 of 6

Structure (SMILES): Clc1ccc(NC(Nc2ccc(Cl)c(Cl)c2)C(Cl)(Cl)Cl)cc1Cl
- survivor count [5]: 6 of 6

Structure (SMILES): CCC/C(=N/NC(=O)C1CCCO1)c1ccccc1 (stereo not drawn)
- survivor count [6]: 0 of 6
- survivor count [7]: 0 of 6

Structure (SMILES): CCC(C)C(CN)(CCCCN1CCCC1)c1cccc2ccccc12 (stereo not drawn)
- survivor count [4]: 5 of 6
- survivor count [5]: 0 of 6

Structure (SMILES): c1ccn2nnnc2c1
- survivor count [8]: 0 of 4

Structure (SMILES): Cc1cccc(NC(=O)N(C)N)c1
- survivor count [2]: 3 of 6

Structure (SMILES): COS(=O)(=O)c1ccc(Cl)c([N+](=O)[O-])c1
- survivor count (dose: 3.0 mg/kg/injection, schedule: Q04DX003 (ip), vehicle: saline with Tween-80): 6 of 6
- survivor count (dose: 6.25 mg/kg/injection, schedule: Q04DX003 (ip), vehicle: saline with Tween-80): 6 of 6
- survivor count (dose: 12.5 mg/kg/injection, schedule: Q04DX003 (ip), vehicle: saline with Tween-80): 6 of 6
- survivor count (dose: 25.0 mg/kg/injection, schedule: Q04DX003 (ip), vehicle: saline with Tween-80): 6 of 6

Structure (SMILES): COc1ccc(N=C(N)NC#N)cc1
- survivor count [7]: 6 of 6

Structure (SMILES): Nc1ccccc1C(O)c1ccccc1 (stereo not drawn)
- survivor count [9]: 2 of 6

Structure (SMILES): Nc1ncnc(N)c1NC(=O)c1ccc(-c2ccccc2)cc1
- survivor count [4]: 6 of 6

Structure (SMILES): O=S(=O)(O)c1ccc(-c2ccc(S(=O)(=O)O)cc2)cc1
- survivor count (dose: 300.0 mg/kg/injection, schedule: Q01DX Z (ip), vehicle: methylcellulose (MC)): 4 of 6

Structure (SMILES): CN1CCN=C1c1ccc(NC(=O)c2ccc(C(=O)Nc3ccc(C4=NCCN4C)cc3)c(N)c2)cc1
- T/C (dose: 1.5 mg/kg/injection, schedule: Q01DX Z (ip), vehicle: carboxymethylcellulose (CMC)): 131 % of control

Structure (SMILES): O=C1Nc2ccccc2Cc2ccccc21
- survivor count (dose: 400.0 mg/kg/injection, schedule: Q01DX009 (ip), vehicle: saline with Tween-80): 6 of 6

Structure (SMILES): Cc1ccc(C)c(NS(=O)(=O)c2cc(Cl)c(Cl)cc2Cl)c1
- survivor count [7]: 3 of 6

Structure (SMILES): CC(O)[CH2][Sb]([Br])([Br])([c]1ccccc1)[c]1ccccc1 (stereo not drawn)
- survivor count (dose: 100.0 mg/kg/injection, schedule: Q04DX002 (ip), vehicle: saline with Tween-80): 0 of 3
- survivor count (dose: 200.0 mg/kg/injection, schedule: Q04DX002 (ip), vehicle: saline with Tween-80): 0 of 3
- survivor count [10]: 0 of 3

Structure (SMILES): O=CNc1c(Cl)c(Cl)c2c(c1Cl)Cc1cc(Cl)ccc1-2
- survivor count (dose: 300.0 mg/kg/injection, schedule: Q01DX009 (ip), vehicle: saline with Tween-80): 3 of 6
- survivor count (dose: 400.0 mg/kg/injection, schedule: Q01DX001 (ip), vehicle: carboxymethylcellulose (CMC)): 4 of 4
- survivor count [9]: 5 of 6

Structure (SMILES): O=C(CCl)Nc1ccc([As](=O)(O)O)cc1
- survivor count [11]: 3 of 6
- survivor count [12]: 1 of 6

Structure (SMILES): Cc1ccc(S(=O)(=O)C[n+]2ccccc2)cc1
- survivor count [10]: 0 of 3

Structure (SMILES): CC1CCCCC1OC(=O)CCN1CC1 (stereo not drawn)
- survivor count (dose: 50.0 mg/kg/injection, schedule: Q01DX009 (ip), vehicle: Klucel (hydroxypropylcellulose) (HPC)): 5 of 6
- survivor count [11]: 1 of 6 and 2 of 6
- survivor count [12]: 1 of 6
- survivor count (dose: 400.0 mg/kg/injection, schedule: Q04DX003 (ip), vehicle: Klucel (hydroxypropylcellulose) (HPC)): 0 of 6

Structure (SMILES): NC1CSSC1
- survivor count (dose: 25.0 mg/kg/injection, schedule: Q01DX009 (ip), vehicle: water): 0 of 6
- survivor count (dose: 50.0 mg/kg/injection, schedule: Q01DX009 (ip), vehicle: water): 0 of 6
- survivor count (dose: 100.0 mg/kg/injection, schedule: Q01DX009 (ip), vehicle: water): 0 of 6
- survivor count (dose: 200.0 mg/kg/injection, schedule: Q01DX009 (ip), vehicle: water): 0 of 6
- survivor count (dose: 400.0 mg/kg/injection, schedule: Q01DX009 (ip), vehicle: water): 0 of 6

Structure (SMILES): O=C(Nc1ccc(CCC2=NCCCN2)cc1)c1ccc(C(=O)Nc2ccc(CCC3=NCCCN3)cc2)cc1
- survivor count (dose: 480.0 mg/kg/injection, schedule: Q01DX Z (ip), vehicle: saline): 4 of 6

Structure (SMILES): ClCCn1c(CCl)nc2ccccc21
- survivor count (dose: 100.0 mg/kg/injection, schedule: Q01DX009 (ip), vehicle: saline): 0 of 6
- survivor count (dose: 200.0 mg/kg/injection, schedule: Q01DX009 (ip), vehicle: saline): 0 of 6
- survivor count (dose: 400.0 mg/kg/injection, schedule: Q01DX009 (ip), vehicle: saline): 0 of 6

Structure (SMILES): CS(=O)(=O)OCCN(CCOS(C)(=O)=O)c1ccc(C(=O)O)cc1
- T/C (dose: 200.0 mg/kg/injection, schedule: Q01DX001 (ip), vehicle: other): 126 % of control
- survivor count (dose: 200.0 mg/kg/injection, schedule: Q01DX015 (ip), vehicle: other): 5 of 6
- survivor count (dose: 267.0 mg/kg/injection, schedule: Q01DX015 (ip), vehicle: other): 5 of 6
- survivor count (dose: 330.0 mg/kg/injection, schedule: Q01DX015 (ip), vehicle: saline): 5 of 6
- T/C [8]: 142 and 146 % of control
- survivor count [9]: 2 of 4
- survivor count (dose: 400.0 mg/kg/injection, schedule: Q01DX015 (ip), vehicle: other): 0 of 6
- survivor count (dose: 600.0 mg/kg/injection, schedule: Q01DX001 (ip), vehicle: other): 2 of 6
- survivor count (dose: 600.0 mg/kg/injection, schedule: Q01DX001 (ip), vehicle: saline): 1 of 4
- survivor count (dose: 600.0 mg/kg/injection, schedule: Q01DX015 (ip), vehicle: other): 0 of 6

Structure (SMILES): Cc1ccc(/C=N/NC(N)=S)nn1
- survivor count [1]: 0 of 3

Structure (SMILES): O=C1c2ccccc2-c2ccccc2C1(Cl)Cl
- survivor count (dose: 150.0 mg/kg/injection, schedule: Q01DX001 (ip), vehicle: saline): 3 of 6
- survivor count [3]: 0 of 6

Structure (SMILES): COc1cc(OC)c(NC(=O)CCl)cc1Cl
- survivor count [7]: 3 of 6

Structure (SMILES): Cc1cc(C)c(C[N+](C)(C)C)c(C)c1
- survivor count (dose: 200.0 mg/kg/injection, schedule: Q01DX001 (ip), vehicle: saline): 0 of 4
- survivor count [9]: 0 of 4

Structure (SMILES): C[N+]1(CCCl)CCOCC1
- survivor count (dose: 80.0 mg/kg/injection, schedule: Q01DX009 (ip), vehicle: Klucel (hydroxypropylcellulose) (HPC)): 6 of 6
- survivor count [11]: 3 of 6
- survivor count [6]: 0 of 6
- survivor count [7]: 0 of 6
